According to paper PMC10482945:
Results are given in words; binding and its absence hold for the method and conditions named. Binding seen in cells or lysates may run through a third protein. Here binding means that the protein was enriched with, or labelled near, the bait; the list need not be complete. One block for each substance: values may come before it.

Chains of the proteins cited; added tags and fusions are not shown.
UniProt P62136: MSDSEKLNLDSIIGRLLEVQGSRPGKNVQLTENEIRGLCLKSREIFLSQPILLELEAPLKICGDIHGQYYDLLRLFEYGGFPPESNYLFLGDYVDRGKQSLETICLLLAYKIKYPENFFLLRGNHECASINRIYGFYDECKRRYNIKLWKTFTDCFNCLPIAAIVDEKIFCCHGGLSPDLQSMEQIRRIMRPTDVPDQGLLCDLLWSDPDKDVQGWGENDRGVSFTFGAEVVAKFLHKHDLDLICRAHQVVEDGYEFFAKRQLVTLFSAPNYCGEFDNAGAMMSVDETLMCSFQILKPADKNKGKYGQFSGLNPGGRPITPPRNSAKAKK
UniProt Q9H5I1: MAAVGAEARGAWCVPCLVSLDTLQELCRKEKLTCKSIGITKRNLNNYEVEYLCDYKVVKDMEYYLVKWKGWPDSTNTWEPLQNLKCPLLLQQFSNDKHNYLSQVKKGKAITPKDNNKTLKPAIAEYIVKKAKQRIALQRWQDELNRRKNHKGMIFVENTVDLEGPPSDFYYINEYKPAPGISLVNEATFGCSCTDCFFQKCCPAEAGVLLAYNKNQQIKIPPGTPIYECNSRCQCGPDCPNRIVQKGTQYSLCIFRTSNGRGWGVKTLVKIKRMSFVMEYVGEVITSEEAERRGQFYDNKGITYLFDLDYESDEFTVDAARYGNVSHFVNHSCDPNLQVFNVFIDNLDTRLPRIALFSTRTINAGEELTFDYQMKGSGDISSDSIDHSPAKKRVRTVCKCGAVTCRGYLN
UniProt P19484: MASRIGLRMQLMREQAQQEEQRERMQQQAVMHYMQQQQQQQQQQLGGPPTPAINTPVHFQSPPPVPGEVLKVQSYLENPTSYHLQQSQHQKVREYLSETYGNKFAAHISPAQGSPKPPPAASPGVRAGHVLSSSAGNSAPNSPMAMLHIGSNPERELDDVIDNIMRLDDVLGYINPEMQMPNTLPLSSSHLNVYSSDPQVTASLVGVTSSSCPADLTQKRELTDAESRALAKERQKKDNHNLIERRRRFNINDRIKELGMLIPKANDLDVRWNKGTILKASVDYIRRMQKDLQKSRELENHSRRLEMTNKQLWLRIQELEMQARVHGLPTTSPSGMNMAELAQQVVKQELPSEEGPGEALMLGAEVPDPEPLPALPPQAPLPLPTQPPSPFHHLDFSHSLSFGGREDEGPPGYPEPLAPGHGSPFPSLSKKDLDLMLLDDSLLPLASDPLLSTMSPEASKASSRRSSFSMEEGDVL
UniProt Q96SB3: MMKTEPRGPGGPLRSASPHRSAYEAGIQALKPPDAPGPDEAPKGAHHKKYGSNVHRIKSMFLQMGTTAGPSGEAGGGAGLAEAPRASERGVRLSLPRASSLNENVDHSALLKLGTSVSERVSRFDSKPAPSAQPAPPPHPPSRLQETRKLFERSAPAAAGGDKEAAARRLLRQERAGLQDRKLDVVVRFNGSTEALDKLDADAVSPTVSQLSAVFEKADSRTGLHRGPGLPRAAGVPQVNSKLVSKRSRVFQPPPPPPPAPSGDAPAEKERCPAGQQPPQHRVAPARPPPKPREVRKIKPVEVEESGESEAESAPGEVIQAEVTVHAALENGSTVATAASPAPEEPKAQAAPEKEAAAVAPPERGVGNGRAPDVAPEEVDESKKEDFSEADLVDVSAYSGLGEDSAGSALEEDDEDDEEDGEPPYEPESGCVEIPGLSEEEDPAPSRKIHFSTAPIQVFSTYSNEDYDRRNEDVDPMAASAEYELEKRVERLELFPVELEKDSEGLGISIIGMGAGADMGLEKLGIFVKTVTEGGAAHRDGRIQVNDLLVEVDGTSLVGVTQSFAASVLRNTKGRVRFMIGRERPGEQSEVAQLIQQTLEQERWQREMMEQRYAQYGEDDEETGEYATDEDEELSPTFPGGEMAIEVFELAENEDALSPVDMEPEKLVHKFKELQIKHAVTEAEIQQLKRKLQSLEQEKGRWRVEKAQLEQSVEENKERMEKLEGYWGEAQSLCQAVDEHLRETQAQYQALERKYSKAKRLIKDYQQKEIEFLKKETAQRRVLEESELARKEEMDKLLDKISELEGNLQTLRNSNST

Columns and labels:
Test in all cases: affinity purification with mass spectrometry; co-IP of endogenous proteins of human NP cells with anti-TFEB, anti-PPP1CA or anti-SUV39H2 antibody and protein A/G beads, 4 °C overnight, 5 washes with NP-40 lysis buffer, SDS-PAGE, LC-MS/MS
[1] = target: protein phosphatase 1 catalytic subunit alpha (PPP1CA), endogenous in nucleus pulposus cells (human (endogenous in human NPCs)) (UniProt P62136)
[2] = target: protein lysine methyltransferase suppressor of variegation 3-9 homologue 2 (SUV39H2), endogenous in nucleus pulposus cells (human (endogenous in human NPCs)) (UniProt Q9H5I1)
[3] = target: transcription factor EB (TFEB), endogenous in nucleus pulposus cells (human (endogenous in human NPCs)) (UniProt P19484)

- binding [1]: binds
Substance: protein lysine methyltransferase suppressor of variegation 3-9 homologue 2 (SUV39H2), endogenous in nucleus pulposus cells (from UniProt Q9H5I1 1-410) (enzyme)

- binding [2]: binds
Substance: protein phosphatase 1 catalytic subunit alpha (PPP1CA), endogenous in nucleus pulposus cells (from UniProt P62136 1-330) (enzyme)

- binding [3]: binds
Substance: protein phosphatase 1 regulatory subunit 9B (PPP1R9B), endogenous in nucleus pulposus cells (from UniProt Q96SB3 1-817)
